Results of single-concentration screens

Amino acid sequences for entries named in this document (tags omitted). Residues count along the entry.
UniProt Q8IDJ8, 1-583: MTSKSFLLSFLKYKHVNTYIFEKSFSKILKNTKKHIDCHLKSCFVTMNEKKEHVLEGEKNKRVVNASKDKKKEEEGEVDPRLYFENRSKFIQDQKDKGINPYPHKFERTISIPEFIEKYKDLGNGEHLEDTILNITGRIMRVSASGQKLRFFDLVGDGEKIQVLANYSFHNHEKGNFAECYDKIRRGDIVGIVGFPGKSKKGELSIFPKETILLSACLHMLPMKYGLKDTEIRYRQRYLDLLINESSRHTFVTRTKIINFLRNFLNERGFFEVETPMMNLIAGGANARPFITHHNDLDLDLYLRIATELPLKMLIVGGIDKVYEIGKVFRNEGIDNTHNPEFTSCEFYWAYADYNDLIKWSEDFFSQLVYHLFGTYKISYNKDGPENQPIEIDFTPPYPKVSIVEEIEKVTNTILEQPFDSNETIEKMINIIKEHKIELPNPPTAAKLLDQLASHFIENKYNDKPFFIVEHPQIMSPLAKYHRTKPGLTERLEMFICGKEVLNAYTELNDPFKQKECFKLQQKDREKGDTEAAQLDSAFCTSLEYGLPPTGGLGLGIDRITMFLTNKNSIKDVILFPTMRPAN

From ChEMBL document CHEMBL3988442, “University of Dundee, Small-Polar-MMV Screening Library” (2021).

Values are the deposited “Percent Effect”, in %.
How 0% and 100% were set is not recorded. Most values in the screen are low, and negative values occur.
Compounds were drawn at random from those tested, without regard to their results.
A dash means the value is not listed here; it may have been measured.

Toxoplasma: 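Assay of Toxoplasma gondii numbers, read through their beta-galactosidase reporter with a colour substrate. Concentration: 10 µM. The record gives no direction; the compounds picked for IC50 retests had high values, so higher reads as fewer parasites. Size under these conditions: about 67,000 compounds, about 260 of them at 50% or above in at least one test.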
T. brucei: 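Whole-parasite assay of Trypanosoma brucei over 72 hours; the read-out is not stated. Compounds at 30 µM. Direction is inferred from retests: higher values go with stronger inhibition. Values scatter widely below zero; nearly all retest evidence comes from the higher of the two concentrations used. Of about 64,000 compounds tested this way, about 940 (1.5%) reached 50% or more in at least one test.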
Leishmania in macrophages: 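Cell assay of Leishmania donovani living inside macrophages; the read-out is not stated. Compounds at 30 µM. Higher reads as stronger inhibition (inferred: compounds with an IC50 in retests scored well above the rest). About 69,000 compounds were tested under these conditions; 1.5% (about 1,000) showed 50% or more at least once.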
PfKRS1: 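Lysine-tRNA ligase, Plasmodium falciparum 3D7 (UniProt Q8IDJ8). Enzyme assay of the cytosolic lysyl-tRNA synthetase in 384-well plates, read by luminescence. Compounds at 30 µM. Higher reads as stronger inhibition, judged from the few compounds that gave an IC50. Size under these conditions: about 69,000 compounds, about 49 of them at 50% or above in at least one test.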

| # | structure | Toxoplasma | T. brucei | Leishmania in macrophages | PfKRS1 |
|---|---|---|---|---|---|
| 1 | `Cc1ccoc1C(=O)N1CCOC2(CCCC2)C1` | 3.233 | 1.224 | 9.514 | 1.997 |
| 2 | `Cc1ccc(-c2nc(CN3CCc4c(ncn4C)C3)cs2)o1` | 9.699 | -16.97 | 11.6 | 0.02344 |
| 3 | `CSc1ccc(OCCN2CCNC(=O)CC2)cc1` | -7.897 | -37.13 | -44.79 | 0.832 |
| 4 | `CC(NC(=O)NCCCn1ccnc1)c1ccc2c(c1)CCC(=O)N2` (centres undefined) | - | -35.46 | 3.882 | -0.6992 |
| 5 | `Cc1ccccc1-c1cncc(C2CCN(S(=O)(=O)N(C)C)CC2)n1` | -9.486 | 23.75 | -0.5314 | 3.211 |
| 6 | `O=C(c1ccn(COc2ccc(F)cc2)n1)N1CCCC1` | -5.185 | -21.7 | 0.02157 | 0.1448 |
| 7 | `CC(=O)N1CCN(Cc2cccc3c2sc2ccccc23)CC(O)C1` (centres undefined) | 6.406 | -11.52 | 24.72 | 3.758 |
| 8 | `Cc1ccsc1C(=O)N1CCCn2c(nc(CN(C)C)cc2=O)C1` | - | - | - | 2.931 |
| 9 | `CN1CC(=O)N(c2cccnc2)Cc2c(NC3CC3)ncnc21` | 3.07 | - | 0.4281 | -1.027 |
| 10 | `Cl.c1nc(N2CCOCC2)ncc1-c1cncn1CCCN1CCCCC1` | 13.31 | -26.24 | 27.83 | - |
| 11 | `CCOc1ccc(CC(CNC(=O)c2ccc(C)o2)C(N)=O)cc1` (centres undefined) | 5.675 | 21.88 | 21.18 | 18.22 |
| 12 | `Cc1nn(CCO)c(C)c1CNC1CCc2c(F)cccc21` (centres undefined) | -40.5 | -7.054 | -20.97 | 3.348 |
| 13 | `CCN1CC(C(=O)NCCOc2ccc3c(c2)OCO3)CC1=O` (centres undefined) | -19.15 | -4.724 | 14.21 | 0.04727 |
| 14 | `COCc1ccccc1NCc1csc(NC(C)=O)n1` | 2.916 | -0.6846 | 13.3 | 2.479 |
| 15 | `COCCN1CCN(CC(O)c2cc(OC)ccc2OC)CC1` (centres undefined) | 0.7299 | -25.15 | -2.308 | 1.869 |
| 16 | `COCC[C@]1(O)CCN(c2ncc(Cl)cc2F)C[C@H]1C` | 1.602 | -30.27 | -14.48 | 3.548 |
| 17 | `Cc1ccc(CNC2(Cc3cc(-c4cccc(O)c4)on3)COC2)o1` | 11.58 | -1.771 | 17.95 | 0.4288 |
| 18 | `Cc1ccc2c(n1)N(C)CCN(C(=O)NC1CC1)C2` | - | - | - | -2.658 |
| 19 | `CCOc1ccc(C(=O)N2CCCC(n3ccnc3C)C2)cc1OC` (centres undefined) | 20.21 | - | 8.89 | 0.5394 |
| 20 | `CNc1ncccc1CN1CCN2CCN(C)CC2C1` (centres undefined) | -14.54 | 2.765 | 33.06 | 1.763 |
| 21 | `C[C@@H]1CN(C(=O)C2(N3CCCCC3)Cc3ccccc3C2)C[C@H](C)O1` | 4.882 | -35.89 | 22.87 | 4.393 |
| 22 | `CC(C)[C@H]1CN(Cc2nccn2C)C[C@@H]1NC(=O)CCS(C)(=O)=O` | 18.05 | -32.55 | 18.55 | -1.093 |
| 23 | `O=C(NCc1ccccc1CN1CCCCC1)Nc1nncs1` | 0.8021 | 3.285 | 0.8021 | 7.337 |
| 24 | `O=C(O)C(F)(F)F.[H][C@@]12CO[C@@H](CNS(C)(=O)=O)[C@]1([H])CCN(C(=O)c1ccccn1)C2` | -0.6197 | -12.68 | -9.735 | - |
| 25 | `CC(NC(=O)CNc1cc2c(cc1Cl)NC(=O)CO2)c1ccco1` (centres undefined) | 15.79 | -55.26 | 18.07 | 3.347 |
| 26 | `[H][C@]12CC[C@]([H])(CNC1)N2c1cc(-c2ccccc2F)nc2ccnn12` | 19.86 | 35.84 | 40.28 | - |
| 27 | `Cc1ccc(CNCc2nnc3n2CCCC3C(F)(F)F)o1` (centres undefined) | -3.304 | -3.123 | 1.885 | 0.08899 |
| 28 | `NC(c1ccc(Cl)cc1)c1cccs1` (centres undefined) | - | - | - | 3.435 |
| 29 | `O=C(O)C(F)(F)F.O=C(O)C(F)(F)F.[H][C@@]12CCCO[C@]1([H])[C@H](OCc1ccncc1)CN2Cc1scnc1C` | 1.199 | -200.7 | -9.694 | - |
| 30 | `COCC(=O)N1CCN(Cc2cc(-c3ccncc3)nn2C)CC1` | -12.48 | -0.9188 | 2.344 | 9.835 |
| 31 | `CCOC(=O)CCC(=O)NC(C)c1ccc(NC(=O)CC)cc1` (centres undefined) | 2.866 | 10.43 | 0.0601 | 3.958 |
| 32 | `CCc1nc(CNC(C)Cn2cccn2)cs1` (centres undefined) | 3.504 | 14.5 | 20.74 | 4.311 |
| 33 | `[H][C@@]12CCN(Cc3cnn(C)c3)C[C@@]1([H])[C@H](C(=O)NC1CCCC1)CCO2` | 4.89 | -21.48 | 25.56 | - |
| 34 | `COc1ccc(OC)c(CNc2nnc(C(C)(C)C)o2)c1` | 18.74 | -21.04 | 30.75 | 0.4805 |
| 35 | `CC(=O)NCCNC(=O)C1(Oc2cccnc2C)CCNCC1` | -1.449 | -10.2 | 29.09 | 2.97 |
| 36 | `CC(NC(=O)CCOc1ccc(F)cc1)c1nnc2n1CCCCC2` (centres undefined) | 27.03 | -19.98 | -0.9051 | -0.9246 |
| 37 | `CC(C)=CCN1CCN(C(=O)c2cc(C(C)C)no2)[C@H]2CS(=O)(=O)C[C@H]21` | - | - | - | 2.413 |
| 38 | `CNC(=O)C1(CCCc2ccncc2)CCCCN1` (centres undefined) | - | - | - | 4.126 |
| 39 | `C[C@@H](N)C(=O)N1CC2(CCNCC2)c2cc(Cl)ccc21` | - | - | - | 4.34 |
| 40 | `Cc1cc(C)cc(CN2C[C@@H]3OCCN(CC(=O)N(C)C)[C@@H]3C2)c1` | - | - | - | 6.778 |
| 41 | `O=C(NCc1ncc[nH]1)c1c(F)cccc1I` | 6.179 | -8.63 | -23.3 | 1.695 |
| 42 | `O=c1ccc2c([nH]1)CCC(NCc1ccncc1)C2` (centres undefined) | 38.02 | -25.44 | 13.38 | 3.426 |
| 43 | `O=C(O)C(F)(F)F.O=C1CC2(CNCCN(C(=O)Nc3ccccc3)C2)CN1` (centres undefined) | -4.866 | -24.96 | 4.588 | - |
| 44 | `CN1CCCCC12CCN(C(=O)c1cccn1C)CC2.O=C(O)C(F)(F)F` | 5.011 | -4.364 | 12.1 | - |
| 45 | `O=C(c1ccc(Cl)cn1)N1CCC(COCc2ccccc2)C1` (centres undefined) | -0.1775 | -23.73 | -5.689 | -6.233 |
| 46 | `Cc1cnn(CC2CCCN2C(=O)c2cn(C)c3ccccc23)c1` (centres undefined) | -15.23 | - | -1.991 | 0.9076 |
| 47 | `O=C(Nc1cccnc1)[C@@H]1CCO[C@@H]2CCN(Cc3cccnc3)C[C@@H]21` | - | - | - | 5.097 |
| 48 | `CC(C)(C)c1ncc(CNc2ccn(CCc3ccncc3)n2)s1` | 8.791 | -27.13 | 10.51 | -0.2049 |
| 49 | `COCCN1CCC(Cc2cncc(-c3ccc(C(=O)O)cc3)n2)CC1` | 11.97 | -33.2 | 0.6565 | 1.691 |
| 50 | `CC(C(=O)N1CCn2cncc2C1)N1C[C@@H](C)O[C@@H](C)C1` (some centres undefined) | -2.52 | -6.867 | 13.04 | 2.842 |
| 51 | `CCCc1nc(C)c(C(=O)NCCNc2ncccn2)s1` | -6.973 | 5.974 | -2.785 | 0.4366 |
| 52 | `[H][C@@]12CCN(S(=O)(=O)C3CC3)[C@@]1([H])CCN2C(=O)c1ccnnc1` | 19.61 | -71.82 | 24.88 | - |
| 53 | `COCCN1CCC2(C1)c1ccccc1S(=O)(=O)N2C` (centres undefined) | - | - | - | 3.026 |
| 54 | `OCC1CCCN1c1cc(NCc2cccs2)ncn1` (centres undefined) | -6.043 | - | -16.63 | -1.152 |
| 55 | `CC(=O)N1CCN(CCNS(=O)(=O)c2cccc(F)c2)CC1` | 6.919 | -2.224 | 21.49 | 2.221 |
| 56 | `CCCC1(CO)CCCN(C(=O)CCCn2nc(C)cc2C)C1` (centres undefined) | -15.29 | -18.01 | -2.776 | 3.542 |
| 57 | `COc1ccc(CNC(=O)NC(C)(C(=O)O)c2ccco2)cc1F` (centres undefined) | 12.9 | -28.45 | -19.25 | -1.217 |
| 58 | `CSc1ncccc1C(=O)N1C[C@H]2CC[C@@H]1CN(C(=O)N(C)C)C2` | - | - | - | 4.167 |
| 59 | `NC(=O)C(NC(=O)COC1CCCCC1)c1ccccc1` (centres undefined) | 10.44 | -68.34 | 12.55 | 5.301 |
| 60 | `CC/N=c1\nc(NCC)nc2n1C(O)(Nc1cccc(Cl)c1Cl)CS2` (centres undefined) | -5.882 | -10.41 | 17.59 | 0.2219 |
| 61 | `Cc1n[nH]cc1CNC1(Cc2ccc(Br)cc2)CCCCC1` | -9.66 | 80.83 | 3.109 | 8.084 |
| 62 | `COc1cccc(C(C)N2CCN(S(=O)(=O)CCCF)CC2)c1` (centres undefined) | -0.6472 | -118.1 | 0.3978 | -3.102 |
| 63 | `[H][C@@]12CCN(Cc3ccc(C)o3)C[C@@]1([H])O[C@H](c1nc(C3CC3)cs1)C2` | 27.51 | -0.1171 | 30.32 | - |

For reference, 7 entries once more:

Result for CCOc1ccc(CC(CNC(=O)c2ccc(C)o2)C(N)=O)cc1 (centres undefined) was Toxoplasma: 5.675%; T. brucei: 21.88%; Leishmania in macrophages: 21.18%; PfKRS1: 18.22%.
Result for O=C(c1ccc(Cl)cn1)N1CCC(COCc2ccccc2)C1 (centres undefined) was Toxoplasma: -0.1775%; T. brucei: -23.73%; Leishmania in macrophages: -5.689%; PfKRS1: -6.233%.
Result for CCCc1nc(C)c(C(=O)NCCNc2ncccn2)s1 was Toxoplasma: -6.973%; T. brucei: 5.974%; Leishmania in macrophages: -2.785%; PfKRS1: 0.4366%.
Result for O=C(NCc1ccccc1CN1CCCCC1)Nc1nncs1 was Toxoplasma: 0.8021%; T. brucei: 3.285%; Leishmania in macrophages: 0.8021%; PfKRS1: 7.337%.
Result for COCc1ccccc1NCc1csc(NC(C)=O)n1 was Toxoplasma: 2.916%; T. brucei: -0.6846%; Leishmania in macrophages: 13.3%; PfKRS1: 2.479%.
Result for CCN1CC(C(=O)NCCOc2ccc3c(c2)OCO3)CC1=O (centres undefined) was Toxoplasma: -19.15%; T. brucei: -4.724%; Leishmania in macrophages: 14.21%; PfKRS1: 0.04727%.
Result for COc1cccc(C(C)N2CCN(S(=O)(=O)CCCF)CC2)c1 (centres undefined) was Toxoplasma: -0.6472%; T. brucei: -118.1%; Leishmania in macrophages: 0.3978%; PfKRS1: -3.102%.